Experimental data reported in patent publication US9517222B2, “Method for the treatment of senile dementia of the Alzheimer's type” (Phenomenome Discoveries Inc., priority 2007, dated 2016).
Some values come without a unit; they compare only within their column.

Columns and labels:
[1] = Serum ethanolamine phospholipid levels in human cohorts (dementia severity, post-mortem pathology, age) by flow-injection MS/MS
[2] = Serum ethanolamine phospholipid ratios to PtdEt 16:0/18:0 (M01) in human cohorts
[3] = serum, females, post mortem SDAT
[4] = serum, females, post mortem control

With CCCCCC=CCC=CCC=CCC=CCCCCCC(=O)OC(COC=CCCCCCCCCCCCCCCCC)COP(=O)(O)OCCN (centres unmarked) [Metabolite M23, Plasmenyl 18:0/22:4] the “Ratio of serum levels” value ([1]; AD, All to CN, Male) was 0.801, the “Ratio of serum levels” value ([1]; ADAS 5-19 to CN, Male) was 0.857 and the “Ratio of serum levels” value ([1]; ADAS 20-39 to 5-19, Male) was 0.906. For the same compound, the “Ratio of serum levels” value ([1]; ADAS 20-39 to CN, Male) was 0.776, the “Ratio of serum levels” value ([1]; ADAS 40-70 to 5-19, Male) was 0.844 and the “Ratio of serum levels” value ([1]; ADAS 40-70 to 20-39, Male) was 0.931. For the same compound, the “Ratio of serum levels” value ([1]; ADAS 40-70 to CN, Male) was 0.723, the “Serum level, Mean” value ([1]; Cognitive Normal, Female) was 0.018 and the “Average serum level, Mean” value ([1]; Cognitive Normal, Male) was 0.018. The “Serum level, Mean” value ([1]; Post Mortem Ctl, Male) was 0.009, the “Serum level, Mean” value ([1]; Post Mortem SDAT Male) was 0.005 and the “Ratio of serum levels” value ([1]; Post mortem SDAT vs Control, Male) was 0.565. For the same compound, the “Serum level, Mean” value ([1]; SDAT, ADAS 5-19, Female) was 0.015, the “Average serum level, Mean” value ([1]; SDAT, ADAS 5-19, Male) was 0.016 and the “Serum level, Mean” value ([1]; SDAT, ADAS 20-39, Female) was 0.014. For the same compound, the “Average serum level, Mean” value ([1]; SDAT, ADAS 20-39, Male) was 0.014, the “Serum level, Mean” value ([1]; SDAT, ADAS 40-70, Female) was 0.013 and the “Average serum level, Mean” value ([1]; SDAT, ADAS 40-70, Male) was 0.013. For the same compound, the “Serum level, Mean” value ([1]; SDAT_all, Female) was 0.014, the “Average serum level, Mean” value ([1]; SDAT_all, Male) was 0.015 and the “Ratio, ADAS 5-19 to CN, Female” value ([1]; serum level ratio, females, ADAS 5-19 vs CN) was 0.809. The “Ratio, ADAS 20-39 to 5-19, Female” value ([1]; serum level ratio, females, ADAS 20-39 vs ADAS 5-19) was 0.975, the “Ratio, ADAS 20-39 to CN, Female” value ([1]; serum level ratio, females, ADAS 20-39 vs CN) was 0.789 and the “Ratio, ADAS 40-70 to 5-19, Female” value ([1]; serum level ratio, females, ADAS 40-70 vs ADAS 5-19) was 0.864. For the same compound, the “Ratio, ADAS 40-70 to 20-39, Female” value ([1]; serum level ratio, females, ADAS 40-70 vs ADAS 20-39) was 0.886, the “Ratio, ADAS 40-70 to CN, Female” value ([1]; serum level ratio, females, ADAS 40-70 vs CN) was 0.699 and the “Ratio, 50-59 vs. 40-49, Female” value ([1]; serum level ratio, females, age 50-59 vs 40-49) was 0.797. For the same compound, the “Ratio, 60-69 vs. 40-49, Female” value ([1]; serum level ratio, females, age 60-69 vs 40-49) was 0.663, the “Ratio, 70+ vs. 40-49, Female” value ([1]; serum level ratio, females, age 70+ vs 40-49) was 0.776 and the “Ratio, AD, All to CN, Female” value ([1]; serum level ratio, females, all AD vs cognitively normal) was 0.764. The “Ratio, Autopsy AD vs. Control, Female” value ([1]; serum level ratio, females, autopsy AD vs control) was 0.560, the “Ratio, 50-59 vs. 40-49, Male” value ([1]; serum level ratio, males, age 50-59 vs 40-49) was 1.008 and the “Ratio, 60-69 vs. 40-49, Male” value ([1]; serum level ratio, males, age 60-69 vs 40-49) was 1.066. The “Ratio, 70+ vs. 40-49, Male” value ([1]; serum level ratio, males, age 70+ vs 40-49) was 0.900, the “Mean serum level, Age Ctl, 30-39, Female” value ([1]; serum, females, age 30-39) was 0.021 and the “Mean serum level, Age Ctl, 40-49, Female” value ([1]; serum, females, age 40-49) was 0.022. The “Mean serum level, Age Ctl, 50-59, Female” value ([1]; serum, females, age 50-59) was 0.017, the “Mean serum level, Age Ctl, 60-69, Female” value ([1]; serum, females, age 60-69) was 0.015 and the “Mean serum level, Age Ctl, 70+, Female” value ([1]; serum, females, age 70+) was 0.017. For the same compound, the “Mean serum level, Post Mortem SDAT, Female” value [1, 3] was 0.007, the “Mean serum level, Post Mortem Ctl, Female” value [1, 4] was 0.012 and the “Mean serum level, Age Ctl, 30-39, Male” value ([1]; serum, males, age 30-39) was 0.022. For the same compound, the “Mean serum level, Age Ctl, 40-49, Male” value ([1]; serum, males, age 40-49) was 0.019, the “Mean serum level, Age Ctl, 50-59, Male” value ([1]; serum, males, age 50-59) was 0.019 and the “Mean serum level, Age Ctl, 60-69, Male” value ([1]; serum, males, age 60-69) was 0.020. For the same compound, the “Mean serum level, Age Ctl, 70+, Male” value ([1]; serum, males, age 70+) was 0.017, the “Ratio of ethanolamine phospholipid ratios to M01 between cohorts” value (shortened to “Ratio … to M01 between cohorts”) ([2]; AD, All to CN, Male) was 0.763 and the “Ratio … to M01 between cohorts” value ([2]; ADAS 5-19 to CN, Male) was 0.810. For the same compound, the “Ratio … to M01 between cohorts” value ([2]; ADAS 20-39 to CN, Male) was 0.754, the “Ratio … to M01 between cohorts” value ([2]; ADAS 40-70 to CN, Male) was 0.696 and the “Average serum ethanolamine phospholipid ratio to M01, Mean” value ([2]; Cognitive Normal, Male, serum) was 0.164. For the same compound, the “Average serum ethanolamine phospholipid ratio to M01, Mean” value ([2]; SDAT, ADAS 5-19, Male, serum) was 0.133, the “Average serum ethanolamine phospholipid ratio to M01, Mean” value ([2]; SDAT, ADAS 20-39, Male, serum) was 0.124 and the “Average serum ethanolamine phospholipid ratio to M01, Mean” value ([2]; SDAT, ADAS 40-70, Male, serum) was 0.114. For the same compound, the “Average serum ethanolamine phospholipid ratio to M01, Mean” value ([2]; SDAT_all, Male, serum) was 0.125, the “Ethanolamine Phospholipid Ratio to M01, Mean, Age Ctl, 30-39, Female” value ([2]; human serum, females aged 30-39) was 0.198 and the “Ethanolamine Phospholipid Ratio to M01, Mean, Age Ctl, 40-49, Female” value ([2]; human serum, females aged 40-49) was 0.202. The “Ethanolamine Phospholipid Ratio to M01, Mean, Age Ctl, 50-59, Female” value ([2]; human serum, females aged 50-59) was 0.177, the “Ratio of Ethanolamine Phospholipid Ratio to M01, 50-59 vs. 40-49, Female” value ([2]; human serum, females aged 50-59 vs. females aged 40-49) was 0.876 and the “Ethanolamine Phospholipid Ratio to M01, Mean, Age Ctl, 60-69, Female” value ([2]; human serum, females aged 60-69) was 0.124. The “Ratio of Ethanolamine Phospholipid Ratio to M01, 60-69 vs. 40-49, Female” value ([2]; human serum, females aged 60-69 vs. females aged 40-49) was 0.614, the “Ethanolamine Phospholipid Ratio to M01, Mean, Age Ctl, 70+_Female” value ([2]; human serum, females aged 70+) was 0.140 and the “Ratio of Ethanolamine Phospholipid Ratio to M01, 70+ vs. 40-49, Female” value ([2]; human serum, females aged 70+ vs. females aged 40-49) was 0.696. The “Ratio of Ethanolamine Phospholipid Ratio to M01, 50-59 vs. 40-49, Male” value ([2]; human serum, males aged 50-59 vs. males aged 40-49) was 1.016, the “Ratio of Ethanolamine Phospholipid Ratio to M01, 60-69 vs. 40-49, Male” value ([2]; human serum, males aged 60-69 vs. males aged 40-49) was 0.858 and the “Ratio of Ethanolamine Phospholipid Ratio to M01, 70+ vs. 40-49, Male” value ([2]; human serum, males aged 70+ vs. males aged 40-49) was 0.759. For the same compound, the “Ratio of ethanolamine phospholipid ratio to M01, ADAS 5-19 to CN, Female” value ([2]; serum, females, ADAS 5-19 vs cognitive normal) was 0.877, the “Ratio of ethanolamine phospholipid ratio to M01, ADAS 20-39 to 5-19, Female” value ([2]; serum, females, ADAS 20-39 vs ADAS 5-19) was 0.948 and the “Ratio of ethanolamine phospholipid ratio to M01, ADAS 20-39 to CN, Female” value ([2]; serum, females, ADAS 20-39 vs cognitive normal) was 0.831. The “Ratio of ethanolamine phospholipid ratio to M01, ADAS 40-70 to 5-19, Female” value ([2]; serum, females, ADAS 40-70 vs ADAS 5-19) was 0.806, the “Ratio of ethanolamine phospholipid ratio to M01, ADAS 40-70 to 20-39, Female” value ([2]; serum, females, ADAS 40-70 vs ADAS 20-39) was 0.851 and the “Ratio of ethanolamine phospholipid ratio to M01, ADAS 40-70 to CN, Female” value ([2]; serum, females, ADAS 40-70 vs cognitive normal) was 0.707. The “Ethanolamine phospholipid ratio to M01, Mean, SDAT, ADAS 5-19, Female” value ([2]; serum, females, SDAT ADAS 5-19) was 0.139, the “Ethanolamine phospholipid ratio to M01, Mean, SDAT, ADAS 20-39, Female” value ([2]; serum, females, SDAT ADAS 20-39) was 0.131 and the “Ethanolamine phospholipid ratio to M01, Mean, SDAT, ADAS 40-70, Female” value ([2]; serum, females, SDAT ADAS 40-70) was 0.112. The “Ratio of ethanolamine phospholipid ratio to M01, AD, All to CN, Female” value ([2]; serum, females, all AD vs cognitive normal) was 0.801, the “Ethanolamine phospholipid ratio to M01, Mean, SDAT_all Female” value ([2]; serum, females, all SDAT) was 0.127 and the “Ratio of ethanolamine phospholipid ratio to M01, Autopsy AD vs. Control, Female” value ([2]; serum, females, autopsy AD vs post mortem control) was 0.816. For the same compound, the “Ethanolamine phospholipid ratio to M01, Mean, Cognitive Normal, Female” value ([2]; serum, females, cognitive normal) was 0.158, the “Ethanolamine phospholipid ratio to M01, Mean, Post Mortem SDAT Female” value [2, 3] was 0.060 and the “Ethanolamine phospholipid ratio to M01, Mean, Post Mortem Ctl, Female” value [2, 4] was 0.073. The “Ratio of ethanolamine phospholipid ratio to M01, ADAS 20-39 to 5-19, Male” value ([2]; serum, males, SDAT ADAS 20-39 vs ADAS 5-19) was 0.931, the “Ratio of ethanolamine phospholipid ratio to M01, ADAS 40-70 to 5-19, Male” value ([2]; serum, males, SDAT ADAS 40-70 vs ADAS 5-19) was 0.860 and the “Ratio of ethanolamine phospholipid ratio to M01, ADAS 40-70 to 20-39, Male” value ([2]; serum, males, SDAT ADAS 40-70 vs ADAS 20-39) was 0.923. For the same compound, the “Ethanolamine phospholipid ratio to M01, Mean, Age Ctl, 30-39, Male” value ([2]; serum, males, age control 30-39) was 0.189, the “Ethanolamine phospholipid ratio to M01, Mean, Age Ctl, 40-49, Male” value ([2]; serum, males, age control 40-49) was 0.175 and the “Ethanolamine phospholipid ratio to M01, Mean, Age Ctl, 50-59, Male” value ([2]; serum, males, age control 50-59) was 0.178. For the same compound, the “Ethanolamine phospholipid ratio to M01, Mean, Age Ctl, 60-69, Male” value ([2]; serum, males, age control 60-69) was 0.150, the “Ethanolamine phospholipid ratio to M01, Mean, Age Ctl, 70+_Male” value ([2]; serum, males, age control 70+) was 0.133 and the “Ethanolamine phospholipid ratio to M01, Mean, Post Mortem SDAT Male” value ([2]; serum, males, post mortem SDAT) was 0.055. For the same compound, the “Ratio of ethanolamine phospholipid ratio to M01, SDAT vs Control (post mortem, males)” value ([2]; serum, males, post mortem SDAT vs post mortem control) was 0.750 and the “Ethanolamine phospholipid ratio to M01, Mean, Post Mortem Ctl, Male” value ([2]; serum, males, post mortem control) was 0.074.
